# Source: the supplement of paper PMC5393889
# Some of the results follow.
# Test system: Caenorhabditis elegans N2
# Experiment: aldicarb interaction hit call (worm growth perturbed in combination with 10 uM aldicarb in both replicates, no effect as single agent) (binary (1 = interacts)); higher = interacts with aldicarb (growth perturbed)
# Conditions: first compound 1.5 µM; aldicarb concentration 10 µM; 6 days; 20 °C
row,SMILES,aldicarb interaction hit call
1,Cc1ccn2cc(-c3ccc(F)cc3)nc2c1 [wact-436] + CNC(=O)O/N=C/C(C)(C)SC [aldicarb],inactive: 0
2,Cc1cc(OC(F)F)ccc1NC(=S)NCCc1ccccc1 [wact-543] + CNC(=O)O/N=C/C(C)(C)SC [aldicarb],inactive: 0
3,N/C(=N\OC(=O)c1cc(Br)ccc1Cl)c1ccncc1 [wact-105] + CNC(=O)O/N=C/C(C)(C)SC [aldicarb],inactive: 0
4,Brc1cccc(-c2cn3ccccc3n2)c1 [wact-435] + CNC(=O)O/N=C/C(C)(C)SC [aldicarb],inactive: 0
5,c1ccc(OCc2nc(-c3ccncc3)no2)cc1 [wact-455] + CNC(=O)O/N=C/C(C)(C)SC [aldicarb],inactive: 0
6,Cc1ccccc1SCCNC(=O)c1ccccc1Br [wact-508] + CNC(=O)O/N=C/C(C)(C)SC [aldicarb],inactive: 0
7,Clc1ccccc1/C=C/c1nc(-c2ccncc2)no1 [wact-81] + CNC(=O)O/N=C/C(C)(C)SC [aldicarb],inactive: 0
8,CC(NC(=O)C(Cl)(Cl)Cl)c1ccccc1 (configuration not stated) [wact-214] + CNC(=O)O/N=C/C(C)(C)SC [aldicarb],inactive: 0
9,N/C(=N\OC(=O)c1ccccc1Br)c1ccncc1 [wact-453] + CNC(=O)O/N=C/C(C)(C)SC [aldicarb],inactive: 0
10,COc1cc(OC)c(OC)cc1/C=C/c1ccc2cccc(OC)c2n1 [wact-526] + CNC(=O)O/N=C/C(C)(C)SC [aldicarb],inactive: 0
11,O=C(CNc1ccc(C(F)(F)F)cc1[N+](=O)[O-])Nc1cccc(SC(F)(F)F)c1 [wact-489] + CNC(=O)O/N=C/C(C)(C)SC [aldicarb],inactive: 0
12,C#CCOc1ccc(/C=C2\C(=O)N(c3ccc(Cl)cc3)N=C2C(F)(F)F)cc1OCC [wact-208] + CNC(=O)O/N=C/C(C)(C)SC [aldicarb],inactive: 0
13,Brc1ccccc1Nc1nc(-c2ccccn2)cs1 [wact-546] + CNC(=O)O/N=C/C(C)(C)SC [aldicarb],inactive: 0
14,Cc1cc(C)cc(OCCNC(=O)c2ccccc2Br)c1 [wact-473] + CNC(=O)O/N=C/C(C)(C)SC [aldicarb],inactive: 0
15,Fc1ccccc1NC(=S)Nc1cccc(C(F)(F)F)c1 [wact-533] + CNC(=O)O/N=C/C(C)(C)SC [aldicarb],inactive: 0
16,O=S(=O)(NCCSc1ccc(Cl)cc1)c1ccc(F)cc1 [wact-456] + CNC(=O)O/N=C/C(C)(C)SC [aldicarb],inactive: 0
17,Fc1cccc(F)c1-c1nc(-c2ccccc2)no1 [wact-177] + CNC(=O)O/N=C/C(C)(C)SC [aldicarb],inactive: 0
18,Cc1cc(C)cc(N(CC(=O)NC2CC3CCC2C3)S(C)(=O)=O)c1 (configuration not stated) [wact-466] + CNC(=O)O/N=C/C(C)(C)SC [aldicarb],inactive: 0
19,CC(C)(C)c1ccc(OCCNC(=O)c2ccccc2[N+](=O)[O-])cc1 [wact-427] + CNC(=O)O/N=C/C(C)(C)SC [aldicarb],inactive: 0

row,SMILES,aldicarb interaction hit call
1,CCCc1ccc(-c2ccc(OC(F)(F)F)cc2)nc1 [wact-432] + CNC(=O)O/N=C/C(C)(C)SC [aldicarb],inactive: 0
2,O=C(/C=C/c1ccc(Cl)cc1Cl)N1CCN(c2ccc(F)cc2)CC1 [wact-437] + CNC(=O)O/N=C/C(C)(C)SC [aldicarb],inactive: 0
3,CNCc1ccc(-c2cccc(Cl)c2C)o1.Cl [wact-183] + CNC(=O)O/N=C/C(C)(C)SC [aldicarb],inactive: 0
4,O=C(c1ccc2oc(Cc3ccc(Cl)cc3)nc2c1)N1CCC(c2ccncc2)CC1 [wact-310] + CNC(=O)O/N=C/C(C)(C)SC [aldicarb],inactive: 0
5,C=CCNCCOc1ccc(-c2ccccc2)cc1.Cl [wact-147] + CNC(=O)O/N=C/C(C)(C)SC [aldicarb],inactive: 0
6,O=C(Nc1ccc(OC(F)F)cc1)c1ccc(F)cc1Cl [wact-580] + CNC(=O)O/N=C/C(C)(C)SC [aldicarb],inactive: 0
7,c1ccc(-c2nc3c(c(-c4ccccc4)n2)CCCC3)cc1 [wact-32] + CNC(=O)O/N=C/C(C)(C)SC [aldicarb],inactive: 0
8,CN(Cc1ccn[nH]1)Cc1cn(-c2ccc(F)cc2)nc1-c1ccccc1Cl [wact-312] + CNC(=O)O/N=C/C(C)(C)SC [aldicarb],inactive: 0
9,Fc1ccccc1Cn1c(-c2cncs2)nc2ccccc21 [wact-93] + CNC(=O)O/N=C/C(C)(C)SC [aldicarb],inactive: 0
10,CCOC(=O)Cc1nc(-c2ccc(Cl)cc2)cs1 [wact-481] + CNC(=O)O/N=C/C(C)(C)SC [aldicarb],inactive: 0
11,CCOc1ccc(S(=O)(=O)Nc2cc(C(=O)OC)ccc2C)cc1 [wact-518] + CNC(=O)O/N=C/C(C)(C)SC [aldicarb],inactive: 0
12,Cc1ccc(C(=O)Nc2ccc(N3CCN(C)CC3)c(Cl)c2)cc1C [wact-562] + CNC(=O)O/N=C/C(C)(C)SC [aldicarb],inactive: 0
13,O=C(c1ccc(-c2ccccc2)cc1)C1CCCN(Cc2cccnc2)C1 (configuration not stated) [wact-244] + CNC(=O)O/N=C/C(C)(C)SC [aldicarb],inactive: 0
14,O=C(NCc1ccc(Cl)cc1Cl)c1cccs1 [wact-520] + CNC(=O)O/N=C/C(C)(C)SC [aldicarb],inactive: 0
15,CC(Oc1cccc(Cl)c1)c1nc(-c2ccncc2)no1 (configuration not stated) [wact-83] + CNC(=O)O/N=C/C(C)(C)SC [aldicarb],inactive: 0
16,O=[N+]([O-])c1ccc(-n2ccc3ccccc32)cc1 [wact-213] + CNC(=O)O/N=C/C(C)(C)SC [aldicarb],inactive: 0
17,Cc1ccccc1C(=O)NCCc1ccccc1 [wact-406] + CNC(=O)O/N=C/C(C)(C)SC [aldicarb],inactive: 0
18,C#CCSc1nnc(-c2ccc(OC)cc2)o1 [wact-210] + CNC(=O)O/N=C/C(C)(C)SC [aldicarb],inactive: 0
19,CC(=O)Oc1ccc(-c2nc3ccccc3s2)cc1 [wact-549] + CNC(=O)O/N=C/C(C)(C)SC [aldicarb],inactive: 0

# As a short view, part of the list above:
row,SMILES,aldicarb interaction hit call
2,O=C(/C=C/c1ccc(Cl)cc1Cl)N1CCN(c2ccc(F)cc2)CC1 [wact-437] + CNC(=O)O/N=C/C(C)(C)SC [aldicarb],inactive: 0
3,CNCc1ccc(-c2cccc(Cl)c2C)o1.Cl [wact-183] + CNC(=O)O/N=C/C(C)(C)SC [aldicarb],inactive: 0
4,O=C(c1ccc2oc(Cc3ccc(Cl)cc3)nc2c1)N1CCC(c2ccncc2)CC1 [wact-310] + CNC(=O)O/N=C/C(C)(C)SC [aldicarb],inactive: 0
5,C=CCNCCOc1ccc(-c2ccccc2)cc1.Cl [wact-147] + CNC(=O)O/N=C/C(C)(C)SC [aldicarb],inactive: 0
6,O=C(Nc1ccc(OC(F)F)cc1)c1ccc(F)cc1Cl [wact-580] + CNC(=O)O/N=C/C(C)(C)SC [aldicarb],inactive: 0
7,c1ccc(-c2nc3c(c(-c4ccccc4)n2)CCCC3)cc1 [wact-32] + CNC(=O)O/N=C/C(C)(C)SC [aldicarb],inactive: 0
8,CN(Cc1ccn[nH]1)Cc1cn(-c2ccc(F)cc2)nc1-c1ccccc1Cl [wact-312] + CNC(=O)O/N=C/C(C)(C)SC [aldicarb],inactive: 0
9,Fc1ccccc1Cn1c(-c2cncs2)nc2ccccc21 [wact-93] + CNC(=O)O/N=C/C(C)(C)SC [aldicarb],inactive: 0
10,CCOC(=O)Cc1nc(-c2ccc(Cl)cc2)cs1 [wact-481] + CNC(=O)O/N=C/C(C)(C)SC [aldicarb],inactive: 0
11,CCOc1ccc(S(=O)(=O)Nc2cc(C(=O)OC)ccc2C)cc1 [wact-518] + CNC(=O)O/N=C/C(C)(C)SC [aldicarb],inactive: 0
12,Cc1ccc(C(=O)Nc2ccc(N3CCN(C)CC3)c(Cl)c2)cc1C [wact-562] + CNC(=O)O/N=C/C(C)(C)SC [aldicarb],inactive: 0
13,O=C(c1ccc(-c2ccccc2)cc1)C1CCCN(Cc2cccnc2)C1 (configuration not stated) [wact-244] + CNC(=O)O/N=C/C(C)(C)SC [aldicarb],inactive: 0
14,O=C(NCc1ccc(Cl)cc1Cl)c1cccs1 [wact-520] + CNC(=O)O/N=C/C(C)(C)SC [aldicarb],inactive: 0

# The list goes on:

row,SMILES,aldicarb interaction hit call
1,Cc1ccc(C(=O)O/N=C(\N)c2ccc(Cl)cc2)c(C)c1 [wact-537] + CNC(=O)O/N=C/C(C)(C)SC [aldicarb],inactive: 0
2,O=c1cc(C(Cl)(Cl)Cl)oc2ccc(Cl)cc12 [wact-424] + CNC(=O)O/N=C/C(C)(C)SC [aldicarb],inactive: 0
3,CCCCOc1ccc(-c2ncc(N)cn2)cc1 [wact-412] + CNC(=O)O/N=C/C(C)(C)SC [aldicarb],inactive: 0
4,C#CCOc1ccc(-c2nc(-c3ccccn3)no2)cc1 [wact-616] + CNC(=O)O/N=C/C(C)(C)SC [aldicarb],inactive: 0
5,O=c1cc(-c2ccccc2)nc(-c2ccccc2)o1 [wact-378] + CNC(=O)O/N=C/C(C)(C)SC [aldicarb],inactive: 0
6,Cc1cc(-c2nc3cc(N)ccc3o2)ccc1Br [wact-602] + CNC(=O)O/N=C/C(C)(C)SC [aldicarb],inactive: 0
7,CC1(CCC(=O)N2CCC3(CCCN(Cc4cccc(F)c4F)C3)C2)CC1 (configuration not stated) [wact-272] + CNC(=O)O/N=C/C(C)(C)SC [aldicarb],inactive: 0
8,Cl.Clc1ccc(OCCCN2CCNCC2)cc1Cl [wact-77] + CNC(=O)O/N=C/C(C)(C)SC [aldicarb],inactive: 0
9,Ic1ccc(OCCCN2CCNCC2)cc1.O=C(O)C(=O)O [wact-76] + CNC(=O)O/N=C/C(C)(C)SC [aldicarb],inactive: 0
10,Clc1ccc(-c2cnnc(N3CCC(c4ccncc4)CC3)n2)cc1 [wact-273] + CNC(=O)O/N=C/C(C)(C)SC [aldicarb],inactive: 0
11,CCc1ccc2oc(-c3cccc(N)c3)nc2c1 [wact-438] + CNC(=O)O/N=C/C(C)(C)SC [aldicarb],inactive: 0
12,O=C(c1ccc(COc2ccc(Cl)cc2)cc1)N1CCCCC1 [wact-606] + CNC(=O)O/N=C/C(C)(C)SC [aldicarb],inactive: 0
13,O=[N+]([O-])c1ccc(N2CCN(CC3CC=CCC3)CC2)cc1 (configuration not stated) [wact-47] + CNC(=O)O/N=C/C(C)(C)SC [aldicarb],inactive: 0
14,CC(C)(C)C(=O)NC(=S)Nc1ccc(Br)cc1 [wact-384] + CNC(=O)O/N=C/C(C)(C)SC [aldicarb],inactive: 0
15,C=CCOc1ccc(/C=C/C(=O)c2ccc(OC)cc2)cc1 [wact-218] + CNC(=O)O/N=C/C(C)(C)SC [aldicarb],inactive: 0
16,Cc1cc(Nc2ccc(Cl)cc2)ncn1 [wact-576] + CNC(=O)O/N=C/C(C)(C)SC [aldicarb],inactive: 0
17,CCNCCOc1ccc(Cl)c2ccccc12.Cl [wact-163] + CNC(=O)O/N=C/C(C)(C)SC [aldicarb],inactive: 0
18,CN(C)c1cccc(-c2nc(-c3ccccc3)no2)c1 [wact-567] + CNC(=O)O/N=C/C(C)(C)SC [aldicarb],inactive: 0
19,N/C(=N\OC(=O)c1cccs1)c1ccccc1 [wact-403] + CNC(=O)O/N=C/C(C)(C)SC [aldicarb],inactive: 0
